Experimental data taken from PMC7348086.
No constants are given. Whether binding was seen depends on the method and setting. Binding seen in cells or lysates may run through a third protein. Some binding calls cover weakened binding; strength is not graded here.

Chains of the proteins cited; added tags and fusions are not shown.
UniProt P35372: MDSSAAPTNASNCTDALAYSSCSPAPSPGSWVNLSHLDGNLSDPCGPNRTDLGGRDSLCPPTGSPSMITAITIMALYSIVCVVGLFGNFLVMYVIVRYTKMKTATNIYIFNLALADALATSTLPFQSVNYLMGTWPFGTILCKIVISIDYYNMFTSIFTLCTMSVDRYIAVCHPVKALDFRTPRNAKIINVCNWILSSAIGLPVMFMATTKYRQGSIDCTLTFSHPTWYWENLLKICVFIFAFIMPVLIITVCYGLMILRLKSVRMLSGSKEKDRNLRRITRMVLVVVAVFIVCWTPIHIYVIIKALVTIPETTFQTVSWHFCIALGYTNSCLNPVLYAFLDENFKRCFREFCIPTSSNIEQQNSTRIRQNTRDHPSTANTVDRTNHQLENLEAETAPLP
UniProt P32121: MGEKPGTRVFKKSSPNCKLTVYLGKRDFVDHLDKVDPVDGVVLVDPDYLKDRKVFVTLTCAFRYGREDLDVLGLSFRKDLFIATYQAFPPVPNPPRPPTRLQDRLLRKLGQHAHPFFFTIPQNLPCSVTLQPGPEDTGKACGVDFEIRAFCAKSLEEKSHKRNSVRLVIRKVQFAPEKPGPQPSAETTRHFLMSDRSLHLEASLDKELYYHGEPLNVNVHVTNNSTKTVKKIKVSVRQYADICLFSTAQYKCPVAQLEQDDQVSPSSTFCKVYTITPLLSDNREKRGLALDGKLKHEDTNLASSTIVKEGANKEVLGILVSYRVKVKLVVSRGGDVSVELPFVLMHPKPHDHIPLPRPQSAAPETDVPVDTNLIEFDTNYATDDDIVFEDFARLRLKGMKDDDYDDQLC
UniProt P25098: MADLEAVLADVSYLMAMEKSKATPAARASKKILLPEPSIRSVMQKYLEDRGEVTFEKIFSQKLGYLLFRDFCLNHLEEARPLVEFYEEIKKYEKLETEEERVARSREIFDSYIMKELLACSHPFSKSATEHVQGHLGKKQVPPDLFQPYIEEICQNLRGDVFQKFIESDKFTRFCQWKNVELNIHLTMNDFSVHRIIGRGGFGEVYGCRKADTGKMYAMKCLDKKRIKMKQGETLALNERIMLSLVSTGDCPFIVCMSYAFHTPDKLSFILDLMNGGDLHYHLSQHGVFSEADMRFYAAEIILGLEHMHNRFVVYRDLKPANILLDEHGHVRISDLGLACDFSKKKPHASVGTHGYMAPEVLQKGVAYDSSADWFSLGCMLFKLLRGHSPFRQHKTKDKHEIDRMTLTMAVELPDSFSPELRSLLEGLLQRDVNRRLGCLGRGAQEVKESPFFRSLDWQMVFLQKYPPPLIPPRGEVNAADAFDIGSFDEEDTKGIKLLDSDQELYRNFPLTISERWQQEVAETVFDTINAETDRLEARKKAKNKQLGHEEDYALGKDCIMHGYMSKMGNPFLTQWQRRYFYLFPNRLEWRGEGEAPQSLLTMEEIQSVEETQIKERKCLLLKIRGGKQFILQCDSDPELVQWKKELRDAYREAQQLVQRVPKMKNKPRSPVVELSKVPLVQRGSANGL

Assays:
[1] = molecular target: μ receptor, C‐terminally sYFP2‐labelled (MOP‐sYFP2) (UniProt P35372); experiment: FRET or BRET; single HEK293T cells co‐expressing MOP‐sYFP2, Arr3‐mTur2 and wild‐type GRK2; whole‐cell voltage clamp, −90 mV stepped to +30 mV; 30 μM Met‐enkephalin (saturating); room temperature
[2] = molecular target: μ receptor, C‐terminally sYFP2‐labelled (MOP‐sYFP2) (UniProt P35372); experiment: FRET or BRET; single HEK293T cells co‐expressing MOP‐sYFP2, GRK2‐mTur2 and unlabelled Gαi, Gß1, Gγ2; whole‐cell voltage clamp, −90 mV stepped to +30 mV; 10 μM DAMGO; room temperature

Row | binding [1] | binding [2] | Substance
1 | binds |  | arrestin3‐mTur2 (mTur2‐labelled arrestin3) (from UniProt P32121 1-409)
2 |  | binds | GRK2‐mTur2 (mTur2‐labelled GPCR kinase 2) (from UniProt P25098 1-689) (enzyme)
